We go through two substances from article PMC4848805.

Amino acid sequences for entries named in this document (tags omitted). A change or cut given only in a name is not applied to a line headed by its entry. Chains listed by the source or under a name are the forms on record and can include a tag or linker.
UniProt P10415: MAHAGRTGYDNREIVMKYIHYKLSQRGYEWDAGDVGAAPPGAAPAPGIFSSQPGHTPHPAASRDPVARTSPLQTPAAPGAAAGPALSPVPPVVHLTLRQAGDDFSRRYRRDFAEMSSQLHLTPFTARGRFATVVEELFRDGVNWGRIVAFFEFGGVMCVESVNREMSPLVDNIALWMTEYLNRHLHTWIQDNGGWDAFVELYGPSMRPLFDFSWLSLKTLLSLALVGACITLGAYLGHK
UniProt Q13153: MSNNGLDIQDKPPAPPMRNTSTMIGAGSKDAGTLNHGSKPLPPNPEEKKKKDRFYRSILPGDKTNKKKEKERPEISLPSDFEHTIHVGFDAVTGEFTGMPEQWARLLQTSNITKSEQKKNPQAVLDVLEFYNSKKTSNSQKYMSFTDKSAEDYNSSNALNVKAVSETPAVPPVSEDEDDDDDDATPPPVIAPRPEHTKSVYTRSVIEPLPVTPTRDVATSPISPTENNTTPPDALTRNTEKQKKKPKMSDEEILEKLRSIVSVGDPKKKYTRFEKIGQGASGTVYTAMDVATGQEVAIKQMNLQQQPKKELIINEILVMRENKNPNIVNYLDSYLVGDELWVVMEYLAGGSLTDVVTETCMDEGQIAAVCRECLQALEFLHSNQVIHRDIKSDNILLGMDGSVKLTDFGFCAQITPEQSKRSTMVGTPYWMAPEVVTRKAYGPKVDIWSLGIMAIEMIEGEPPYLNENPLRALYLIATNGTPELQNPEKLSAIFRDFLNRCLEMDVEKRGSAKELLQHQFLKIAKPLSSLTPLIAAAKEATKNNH
Myc-tagged PAK1-DN (PAK1 H83,86L, K299R, dominant-negative) (Q13153, form named): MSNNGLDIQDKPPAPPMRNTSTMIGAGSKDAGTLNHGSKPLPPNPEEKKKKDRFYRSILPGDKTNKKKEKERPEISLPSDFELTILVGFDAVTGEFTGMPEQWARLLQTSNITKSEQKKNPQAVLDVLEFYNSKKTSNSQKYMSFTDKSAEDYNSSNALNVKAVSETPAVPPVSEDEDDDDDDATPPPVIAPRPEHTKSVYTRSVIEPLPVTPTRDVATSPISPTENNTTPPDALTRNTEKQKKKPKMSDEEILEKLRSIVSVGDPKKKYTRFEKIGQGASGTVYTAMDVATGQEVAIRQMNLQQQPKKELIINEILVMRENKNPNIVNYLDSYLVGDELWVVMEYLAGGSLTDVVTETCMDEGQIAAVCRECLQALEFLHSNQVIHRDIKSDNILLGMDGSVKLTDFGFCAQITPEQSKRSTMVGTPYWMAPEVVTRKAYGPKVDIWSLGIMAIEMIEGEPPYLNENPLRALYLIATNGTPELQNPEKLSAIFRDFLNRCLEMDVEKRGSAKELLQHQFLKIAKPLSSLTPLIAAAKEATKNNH

These are yes or no findings as the source states them, for the method shown. In cells and extracts the contact can be indirect. Some entries that bind do so weakly or less than the wild type.

The test deals with FLAG-tagged Bcl-2 (human) (UniProt P10415). Put plainly: co-IP; HEK 293T cells transfected with FLAG-tagged Bcl-2 and Myc-tagged PAK1-CA or PAK1-DN; lysates immunoprecipitated with anti-FLAG antibody, Western blot with anti-Myc antibody.

With “Myc-tagged PAK1-DN (PAK1 H83,86L, K299R, dominant-negative) (from UniProt Q13153 1-545) (enzyme)”, the binding result was “binds”.
The same measure for “Myc-tagged PAK1-CA (PAK1 T423E, constitutively active) (from UniProt Q13153 1-545) (enzyme)”: “binds”.
